We go through nine molecules from article PMC9933440 (Crystal Growth & Design, 2022).

Structures are written as SMILES.

The conditions of data set [1]: cited from earlier work.
The nature of data set [2]: Solid-state fluorescence spectra and quantum yield. Format: physicochemical. Conditions: for ΦF (fluorescence quantum yield) / λem^max: solid state, excited at 365 nm; for luminescence compared with the pure API: this work.
The conditions of data set [3]: cited from earlier work. This is another data set of the same source.

`CN1C(C(=O)Nc2ccccn2)=C(O)c2sc(Cl)cc2S1(=O)=O.CNC(=O)NC` [LRM 1,3-dimethyl urea]: the “tabletability vs parent API (fold)” value in data set [1] is reported as 2.5 x.
Take `Cc1cnc(NC(=O)C2=C(O)c3ccccc3S(=O)(=O)N2C)s1` [MEL, meloxicam]: the “ΦF (fluorescence quantum yield)” value in data set [2] is 0.14.
As to `Cc1cnc(NC(=O)C2=C(O)c3ccccc3S(=O)(=O)N2C)s1.Nc1ccncc1` [MEL-4AP], the “ΦF (fluorescence quantum yield)” value in data set [2] amounted to 0.008.
In the case of `CN(C)c1ccncc1.Cc1cnc(NC(=O)C2=C(O)c3ccccc3S(=O)(=O)N2C)s1` [MEL-4DMP], the “ΦF (fluorescence quantum yield)” value in data set [2] was found to be 0.044.
The same measure, in the same setting: to `C1CNCCN1.Cc1cnc(NC(=O)C2=C(O)c3ccccc3S(=O)(=O)N2C)s1.Cc1cnc(NC(=O)C2=C(O)c3ccccc3S(=O)(=O)N2C)s1` [MEL-PPZ] belongs 0.016.
`CN1C(C(=O)Nc2ccccn2)=C(O)c2ccccc2S1(=O)=O` [PRM, Piroxicam]: in data set [2], the “ΦF (fluorescence quantum yield)” value came out at 0.614 and the “λem^max” value is recorded as 460 nm. In data set [3], the “Biopharmaceutics Classification System class” value was “Class II”.
Turning to `CN1C(C(=O)Nc2ccccn2)=C(O)c2ccccc2S1(=O)=O.Nc1ccncc1` [PRM-4AP], in data set [2], the “ΦF (fluorescence quantum yield)” value stood at 0.685, the “λem^max” value turned out to be 477 nm and the “luminescence compared with the pure API” value is on record as “modified luminescence”.
Take `CN(C)c1ccncc1.CN1C(C(=O)Nc2ccccn2)=C(O)c2ccccc2S1(=O)=O` [PRM-4DMP]: in data set [2], the “ΦF (fluorescence quantum yield)” value was found to be 0.660, the “λem^max” value was 471 nm and the “luminescence compared with the pure API” value is “modified luminescence”.
As to `C1CNCCN1.CN1C(C(=O)Nc2ccccn2)=C(O)c2ccccc2S1(=O)=O.CN1C(C(=O)Nc2ccccn2)=C(O)c2ccccc2S1(=O)=O` [PRM-PPZ], in data set [2], the “ΦF (fluorescence quantum yield)” value came to 0.408, the “λem^max” value was 463 nm and the “luminescence compared with the pure API” value is on record as “modified luminescence”.
